Assay results taken from article doi:10.1101/2023.01.29.526107.
No constants are given. Whether binding was seen depends on the method and setting. Binding seen in cells or lysates may run through a third protein. Some binding calls cover weakened binding; strength is not graded here.

Chains of the proteins cited; added tags and fusions are not shown. Lines headed by an entry give the natural chain unless they say otherwise; changes in a name come on top. Residues count along the entry.
UniProt P08069, 31-1367: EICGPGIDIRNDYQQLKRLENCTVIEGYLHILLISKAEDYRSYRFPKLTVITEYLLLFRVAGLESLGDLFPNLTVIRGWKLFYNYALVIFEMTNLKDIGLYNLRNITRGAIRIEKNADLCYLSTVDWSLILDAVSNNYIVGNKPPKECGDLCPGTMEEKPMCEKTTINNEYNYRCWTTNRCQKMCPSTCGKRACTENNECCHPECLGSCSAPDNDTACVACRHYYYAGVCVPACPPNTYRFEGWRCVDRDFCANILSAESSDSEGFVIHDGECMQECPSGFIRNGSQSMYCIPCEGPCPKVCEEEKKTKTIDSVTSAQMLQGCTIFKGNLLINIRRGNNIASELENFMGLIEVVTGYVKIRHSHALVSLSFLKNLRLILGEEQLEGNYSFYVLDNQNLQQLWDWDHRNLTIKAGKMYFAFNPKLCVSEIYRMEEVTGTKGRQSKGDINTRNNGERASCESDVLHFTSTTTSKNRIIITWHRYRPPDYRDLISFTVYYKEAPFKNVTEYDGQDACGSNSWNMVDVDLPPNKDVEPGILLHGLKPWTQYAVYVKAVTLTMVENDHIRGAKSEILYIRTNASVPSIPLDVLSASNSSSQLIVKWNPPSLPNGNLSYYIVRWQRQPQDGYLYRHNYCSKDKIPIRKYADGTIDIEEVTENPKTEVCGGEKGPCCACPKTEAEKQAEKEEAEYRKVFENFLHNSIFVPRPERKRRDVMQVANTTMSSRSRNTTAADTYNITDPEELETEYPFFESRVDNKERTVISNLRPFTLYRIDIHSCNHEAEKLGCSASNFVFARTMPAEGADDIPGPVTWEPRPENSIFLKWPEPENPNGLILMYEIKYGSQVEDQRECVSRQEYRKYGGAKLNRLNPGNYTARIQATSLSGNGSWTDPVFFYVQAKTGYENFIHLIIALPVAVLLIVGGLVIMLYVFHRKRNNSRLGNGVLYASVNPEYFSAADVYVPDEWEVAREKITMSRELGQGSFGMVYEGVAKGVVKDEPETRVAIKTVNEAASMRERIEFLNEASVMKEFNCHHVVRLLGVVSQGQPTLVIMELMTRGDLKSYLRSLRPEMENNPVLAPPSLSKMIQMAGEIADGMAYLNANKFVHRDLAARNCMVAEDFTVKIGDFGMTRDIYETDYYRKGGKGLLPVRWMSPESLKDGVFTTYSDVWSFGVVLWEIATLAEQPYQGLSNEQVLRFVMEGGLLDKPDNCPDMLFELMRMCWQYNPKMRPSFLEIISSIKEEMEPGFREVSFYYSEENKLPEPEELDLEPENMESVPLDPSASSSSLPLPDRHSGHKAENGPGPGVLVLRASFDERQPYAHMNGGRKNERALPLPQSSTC
UniProt P08069, whole entry, looked up, stated change not applied: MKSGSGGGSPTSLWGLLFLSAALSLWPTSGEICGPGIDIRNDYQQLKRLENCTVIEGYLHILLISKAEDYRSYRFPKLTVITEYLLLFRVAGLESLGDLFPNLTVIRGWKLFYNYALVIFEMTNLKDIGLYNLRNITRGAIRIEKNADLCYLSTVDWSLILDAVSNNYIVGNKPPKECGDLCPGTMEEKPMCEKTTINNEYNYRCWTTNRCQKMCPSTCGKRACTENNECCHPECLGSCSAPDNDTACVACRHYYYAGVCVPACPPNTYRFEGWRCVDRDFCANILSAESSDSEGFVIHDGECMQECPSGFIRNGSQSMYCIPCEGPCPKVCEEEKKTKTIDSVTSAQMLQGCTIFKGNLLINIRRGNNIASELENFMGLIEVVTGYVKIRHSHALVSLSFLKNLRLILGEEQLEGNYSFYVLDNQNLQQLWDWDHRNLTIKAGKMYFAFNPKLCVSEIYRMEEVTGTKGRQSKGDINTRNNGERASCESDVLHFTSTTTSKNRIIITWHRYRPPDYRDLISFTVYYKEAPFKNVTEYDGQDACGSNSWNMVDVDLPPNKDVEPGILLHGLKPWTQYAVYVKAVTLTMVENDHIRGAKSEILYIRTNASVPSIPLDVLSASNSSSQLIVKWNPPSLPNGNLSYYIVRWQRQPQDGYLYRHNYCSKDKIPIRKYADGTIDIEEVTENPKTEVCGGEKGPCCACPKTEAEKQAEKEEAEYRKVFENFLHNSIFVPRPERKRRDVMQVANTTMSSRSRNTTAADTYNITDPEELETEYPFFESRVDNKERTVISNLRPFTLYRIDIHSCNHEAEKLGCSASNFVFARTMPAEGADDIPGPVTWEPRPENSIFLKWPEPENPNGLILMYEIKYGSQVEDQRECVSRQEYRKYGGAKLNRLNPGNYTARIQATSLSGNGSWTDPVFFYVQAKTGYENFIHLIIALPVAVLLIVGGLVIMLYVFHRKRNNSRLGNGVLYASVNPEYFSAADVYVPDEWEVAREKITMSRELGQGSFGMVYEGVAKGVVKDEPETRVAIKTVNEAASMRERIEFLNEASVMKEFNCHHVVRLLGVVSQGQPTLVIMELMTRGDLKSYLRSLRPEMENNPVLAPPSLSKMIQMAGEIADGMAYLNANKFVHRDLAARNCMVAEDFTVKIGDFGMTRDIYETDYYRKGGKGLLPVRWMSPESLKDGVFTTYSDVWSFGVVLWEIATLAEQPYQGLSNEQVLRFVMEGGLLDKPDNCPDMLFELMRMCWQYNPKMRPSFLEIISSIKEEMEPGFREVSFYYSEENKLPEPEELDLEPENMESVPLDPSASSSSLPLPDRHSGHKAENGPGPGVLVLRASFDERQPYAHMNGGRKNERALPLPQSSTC
UniProt P29376, 17-864: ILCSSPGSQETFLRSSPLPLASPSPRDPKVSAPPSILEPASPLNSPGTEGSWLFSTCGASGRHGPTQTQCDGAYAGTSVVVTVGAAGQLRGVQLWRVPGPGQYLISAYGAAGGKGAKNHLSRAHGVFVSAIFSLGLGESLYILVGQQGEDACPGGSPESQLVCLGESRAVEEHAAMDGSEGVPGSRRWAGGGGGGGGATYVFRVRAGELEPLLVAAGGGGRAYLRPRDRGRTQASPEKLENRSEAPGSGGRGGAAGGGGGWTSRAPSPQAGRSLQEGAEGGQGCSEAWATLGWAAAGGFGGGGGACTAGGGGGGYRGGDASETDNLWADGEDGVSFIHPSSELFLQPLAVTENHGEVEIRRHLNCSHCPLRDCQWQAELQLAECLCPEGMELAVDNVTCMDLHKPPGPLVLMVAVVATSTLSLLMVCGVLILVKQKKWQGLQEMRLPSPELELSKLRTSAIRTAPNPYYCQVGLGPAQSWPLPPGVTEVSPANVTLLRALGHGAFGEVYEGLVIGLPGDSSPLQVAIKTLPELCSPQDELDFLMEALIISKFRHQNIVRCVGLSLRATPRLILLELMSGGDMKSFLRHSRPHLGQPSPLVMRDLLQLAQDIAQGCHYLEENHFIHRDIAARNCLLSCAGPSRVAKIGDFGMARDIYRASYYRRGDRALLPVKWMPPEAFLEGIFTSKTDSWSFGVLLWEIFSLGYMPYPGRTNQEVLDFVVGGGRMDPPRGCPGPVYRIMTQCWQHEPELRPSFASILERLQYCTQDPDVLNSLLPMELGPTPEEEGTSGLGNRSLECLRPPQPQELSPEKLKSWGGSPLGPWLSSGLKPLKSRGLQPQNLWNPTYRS

Legend:
[1] = molecular target: Flag-tagged IGF-1R (insulin-like growth factor 1 receptor), wild type (UniProt P08069); assay: co-IP
[2] = molecular target: Flag-tagged IGF-1R-K1003R, kinase inactive (KR) variant (UniProt P08069); assay: co-IP

Substance: LTK-GFP (leukocyte tyrosine kinase, GFP-tagged) (from UniProt P29376 17-864) (receptor)
- binding [1]: binds

Substance: LTK-WT-HA (HA-tagged wild-type LTK) (from UniProt P29376 17-864) (receptor)
- binding [1]: binds
- binding [2]: binds
